Test results as given in article PMC10724065.
No constants are given. Whether binding was seen depends on the method and setting. Binding can be weak; no strength is given. Tags and fused reporters may be left off the sequences shown.

Tests used:
[1] = molecular target: T1, His-tagged GAI (Arabidopsis thaliana) (UniProt Q9LQT8); assay: pull-down; 5 μg His-GAI/gai held on Ni-NTA agarose, 5 μg MBP-SLY1/sly1 added, 1 h at 4 °C, five washes, immunoblot with anti-His and anti-MBP; both purified
T1 sequence: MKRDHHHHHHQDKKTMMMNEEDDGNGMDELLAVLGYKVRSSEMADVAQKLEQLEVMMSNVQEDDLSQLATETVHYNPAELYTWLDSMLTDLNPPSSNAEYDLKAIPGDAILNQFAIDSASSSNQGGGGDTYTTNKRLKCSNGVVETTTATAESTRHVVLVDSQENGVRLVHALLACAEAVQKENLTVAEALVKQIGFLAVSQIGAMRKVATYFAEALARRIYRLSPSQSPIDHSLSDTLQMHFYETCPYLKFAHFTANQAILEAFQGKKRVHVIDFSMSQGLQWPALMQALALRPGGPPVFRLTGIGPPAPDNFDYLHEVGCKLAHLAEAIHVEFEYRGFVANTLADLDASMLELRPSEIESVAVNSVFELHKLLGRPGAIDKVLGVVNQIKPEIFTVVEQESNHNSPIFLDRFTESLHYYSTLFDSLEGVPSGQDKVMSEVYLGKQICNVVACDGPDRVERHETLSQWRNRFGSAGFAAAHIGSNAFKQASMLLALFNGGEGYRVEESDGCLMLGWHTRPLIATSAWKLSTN

[2] = molecular target: T1, His-tagged GAI (Arabidopsis thaliana); assay: pull-down; 5 μg His-GAI held on Ni-NTA agarose, 5 μg MBP-SLY1/sly1 added with an equal amount of GST-GID1C and 0.1 mM GA3, 1 h at 4 °C, immunoblot with anti-His, anti-MBP and anti-GST; both purified
[3] = molecular target: T2, Oryza sativa GID2 (yeast bait fusion) (Oryza sativa) (UniProt Q7XAK4); assay: two-hybrid; SLY1/GID2 baits (pGBKT7) and DELLA preys (pGADT7); spotted on SD/-LWAH/X, strain AH109, 3-5 d at 30 °C; strengths quantified as β-galactosidase units with CPRG in liquid culture, strain Y187 (ND if OD578 <0.01 after 3 h)
T2 sequence: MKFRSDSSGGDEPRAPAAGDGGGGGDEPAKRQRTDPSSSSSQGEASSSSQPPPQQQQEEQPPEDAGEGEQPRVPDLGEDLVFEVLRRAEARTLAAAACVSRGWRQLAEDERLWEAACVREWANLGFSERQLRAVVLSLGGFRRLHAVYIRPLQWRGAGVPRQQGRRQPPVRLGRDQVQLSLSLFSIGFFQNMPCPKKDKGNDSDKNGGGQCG

MBP-tagged MpSLY1 (Marchantia polymorpha)
binding [1]: binds
binding [2]: binds

MBP-tagged SmSLY1 (Selaginella moellendorffii)
binding [1]: binds
binding [2]: binds

Marchantia polymorpha MpDELLA (yeast prey fusion)
binding [3]: binds weakly

Selaginella moellendorffii SmDELLA1 (yeast prey fusion)
binding [3]: no binding

Selaginella moellendorffii SmDELLA2 (yeast prey fusion)
binding [3]: no binding
